# According to the supplement of paper PMC12819154, “High-throughput peptide-centric local stability assay extends protein–ligand identification to membrane proteins, tissues and bacteria” (Nature Structural & Molecular Biology, 2025):
# Protein sequences, listed by entry. Tags and fused reporters are not part of them. Lines headed by an entry give the natural chain unless they say otherwise; changes in a name come on top.
# UniProt Q9BWV3: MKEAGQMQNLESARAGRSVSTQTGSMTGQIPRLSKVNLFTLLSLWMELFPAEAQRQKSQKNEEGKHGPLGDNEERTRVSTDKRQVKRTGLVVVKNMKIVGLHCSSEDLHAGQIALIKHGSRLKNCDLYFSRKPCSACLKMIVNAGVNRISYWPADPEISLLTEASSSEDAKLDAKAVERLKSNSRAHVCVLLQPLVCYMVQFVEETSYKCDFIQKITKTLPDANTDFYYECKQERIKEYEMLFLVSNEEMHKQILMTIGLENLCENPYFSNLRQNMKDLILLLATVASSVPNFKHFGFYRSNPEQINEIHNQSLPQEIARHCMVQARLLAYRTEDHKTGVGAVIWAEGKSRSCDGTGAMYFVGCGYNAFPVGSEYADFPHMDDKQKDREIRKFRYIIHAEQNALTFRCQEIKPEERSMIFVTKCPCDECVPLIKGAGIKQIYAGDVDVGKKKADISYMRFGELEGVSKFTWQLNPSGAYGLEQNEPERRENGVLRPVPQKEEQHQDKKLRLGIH
# UniProt Q9BZF3: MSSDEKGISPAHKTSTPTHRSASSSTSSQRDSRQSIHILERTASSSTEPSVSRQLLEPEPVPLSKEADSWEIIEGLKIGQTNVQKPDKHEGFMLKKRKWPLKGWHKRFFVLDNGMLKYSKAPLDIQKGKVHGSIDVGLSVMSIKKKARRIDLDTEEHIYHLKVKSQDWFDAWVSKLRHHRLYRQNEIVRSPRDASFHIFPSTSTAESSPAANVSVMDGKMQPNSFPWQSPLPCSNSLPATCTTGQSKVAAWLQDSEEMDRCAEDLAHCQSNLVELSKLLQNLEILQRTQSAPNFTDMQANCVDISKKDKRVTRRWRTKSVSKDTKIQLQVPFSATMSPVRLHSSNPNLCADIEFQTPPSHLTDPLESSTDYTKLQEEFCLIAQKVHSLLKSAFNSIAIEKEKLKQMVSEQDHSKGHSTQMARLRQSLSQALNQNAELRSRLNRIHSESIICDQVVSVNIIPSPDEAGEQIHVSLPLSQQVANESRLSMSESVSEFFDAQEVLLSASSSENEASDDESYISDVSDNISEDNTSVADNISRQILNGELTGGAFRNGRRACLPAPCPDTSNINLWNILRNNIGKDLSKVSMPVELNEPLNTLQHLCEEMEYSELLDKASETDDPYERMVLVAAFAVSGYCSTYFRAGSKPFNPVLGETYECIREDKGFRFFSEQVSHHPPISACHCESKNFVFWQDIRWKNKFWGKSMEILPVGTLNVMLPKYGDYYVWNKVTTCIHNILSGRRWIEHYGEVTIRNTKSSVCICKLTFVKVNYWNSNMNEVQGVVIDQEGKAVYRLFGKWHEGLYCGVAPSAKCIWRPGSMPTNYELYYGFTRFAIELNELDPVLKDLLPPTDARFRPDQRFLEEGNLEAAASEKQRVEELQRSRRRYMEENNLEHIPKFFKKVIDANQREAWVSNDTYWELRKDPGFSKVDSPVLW
# UniProt Q9H0R1: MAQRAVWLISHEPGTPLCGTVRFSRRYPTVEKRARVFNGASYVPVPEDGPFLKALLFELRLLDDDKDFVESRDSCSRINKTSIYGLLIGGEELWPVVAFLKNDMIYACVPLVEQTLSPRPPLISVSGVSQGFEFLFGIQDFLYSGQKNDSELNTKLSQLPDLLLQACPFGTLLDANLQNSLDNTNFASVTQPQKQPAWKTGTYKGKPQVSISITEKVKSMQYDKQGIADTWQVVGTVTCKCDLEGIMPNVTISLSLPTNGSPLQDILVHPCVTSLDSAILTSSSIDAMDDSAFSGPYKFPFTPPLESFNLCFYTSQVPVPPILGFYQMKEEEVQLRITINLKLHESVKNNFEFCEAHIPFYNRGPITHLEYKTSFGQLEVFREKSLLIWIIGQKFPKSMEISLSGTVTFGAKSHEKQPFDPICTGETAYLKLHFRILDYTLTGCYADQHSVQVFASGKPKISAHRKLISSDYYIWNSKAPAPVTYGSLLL
# UniProt Q9BWH2: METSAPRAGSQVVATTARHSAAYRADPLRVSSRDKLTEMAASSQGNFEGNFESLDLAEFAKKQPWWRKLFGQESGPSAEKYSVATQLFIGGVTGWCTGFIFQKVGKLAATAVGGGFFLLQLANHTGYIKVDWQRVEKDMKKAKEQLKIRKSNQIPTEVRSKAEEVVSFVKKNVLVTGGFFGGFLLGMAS
# UniProt Q9C0B7: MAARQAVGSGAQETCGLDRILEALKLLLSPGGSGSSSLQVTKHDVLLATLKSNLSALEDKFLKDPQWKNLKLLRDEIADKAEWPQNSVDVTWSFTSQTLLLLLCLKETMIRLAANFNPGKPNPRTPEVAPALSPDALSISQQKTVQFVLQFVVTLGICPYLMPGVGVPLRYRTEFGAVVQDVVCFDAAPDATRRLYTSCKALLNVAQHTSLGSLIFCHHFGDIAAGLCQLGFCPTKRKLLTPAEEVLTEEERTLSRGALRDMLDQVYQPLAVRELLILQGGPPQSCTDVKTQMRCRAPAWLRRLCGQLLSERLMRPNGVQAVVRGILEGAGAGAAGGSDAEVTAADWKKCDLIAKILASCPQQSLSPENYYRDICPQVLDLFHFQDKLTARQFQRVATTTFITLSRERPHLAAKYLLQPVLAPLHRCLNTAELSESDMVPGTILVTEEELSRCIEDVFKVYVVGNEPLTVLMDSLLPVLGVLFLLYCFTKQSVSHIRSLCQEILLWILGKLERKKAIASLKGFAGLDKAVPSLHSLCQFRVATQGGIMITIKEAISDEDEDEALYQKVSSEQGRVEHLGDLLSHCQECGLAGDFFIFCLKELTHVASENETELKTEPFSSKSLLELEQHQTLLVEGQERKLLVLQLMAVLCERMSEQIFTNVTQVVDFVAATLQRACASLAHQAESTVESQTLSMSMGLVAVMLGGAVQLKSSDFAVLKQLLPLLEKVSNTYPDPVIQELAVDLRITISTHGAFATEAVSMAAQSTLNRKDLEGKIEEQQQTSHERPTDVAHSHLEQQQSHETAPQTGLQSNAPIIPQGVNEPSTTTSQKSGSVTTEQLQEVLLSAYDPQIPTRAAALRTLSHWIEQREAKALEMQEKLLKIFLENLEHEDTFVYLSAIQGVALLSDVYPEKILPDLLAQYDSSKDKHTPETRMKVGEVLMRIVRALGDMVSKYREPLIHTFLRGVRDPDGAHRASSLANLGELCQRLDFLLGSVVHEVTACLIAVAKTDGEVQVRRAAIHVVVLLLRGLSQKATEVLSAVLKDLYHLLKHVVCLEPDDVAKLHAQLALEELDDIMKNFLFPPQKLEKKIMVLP
# UniProt Q9H0N5: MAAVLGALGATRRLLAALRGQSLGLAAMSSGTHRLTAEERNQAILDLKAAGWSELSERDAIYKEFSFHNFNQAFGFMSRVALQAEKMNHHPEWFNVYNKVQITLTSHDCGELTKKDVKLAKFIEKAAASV
# UniProt Q9H0Z9: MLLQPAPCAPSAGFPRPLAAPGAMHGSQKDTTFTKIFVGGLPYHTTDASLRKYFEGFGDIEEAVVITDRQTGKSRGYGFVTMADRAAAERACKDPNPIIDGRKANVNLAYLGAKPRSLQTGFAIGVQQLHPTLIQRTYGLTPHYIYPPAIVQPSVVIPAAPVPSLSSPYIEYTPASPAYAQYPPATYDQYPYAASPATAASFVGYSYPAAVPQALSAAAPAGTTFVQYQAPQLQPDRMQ
# UniProt Q9BYE7: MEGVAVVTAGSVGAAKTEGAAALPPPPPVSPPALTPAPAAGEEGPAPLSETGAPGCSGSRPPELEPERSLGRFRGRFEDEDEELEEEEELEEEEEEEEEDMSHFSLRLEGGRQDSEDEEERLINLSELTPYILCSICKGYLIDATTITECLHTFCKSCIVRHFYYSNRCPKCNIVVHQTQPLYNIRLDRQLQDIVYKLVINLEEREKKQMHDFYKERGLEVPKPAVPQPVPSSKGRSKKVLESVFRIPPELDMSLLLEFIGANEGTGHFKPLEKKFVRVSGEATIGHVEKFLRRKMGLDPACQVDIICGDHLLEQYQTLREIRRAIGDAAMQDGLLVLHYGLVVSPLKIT
# UniProt Q9BVJ6: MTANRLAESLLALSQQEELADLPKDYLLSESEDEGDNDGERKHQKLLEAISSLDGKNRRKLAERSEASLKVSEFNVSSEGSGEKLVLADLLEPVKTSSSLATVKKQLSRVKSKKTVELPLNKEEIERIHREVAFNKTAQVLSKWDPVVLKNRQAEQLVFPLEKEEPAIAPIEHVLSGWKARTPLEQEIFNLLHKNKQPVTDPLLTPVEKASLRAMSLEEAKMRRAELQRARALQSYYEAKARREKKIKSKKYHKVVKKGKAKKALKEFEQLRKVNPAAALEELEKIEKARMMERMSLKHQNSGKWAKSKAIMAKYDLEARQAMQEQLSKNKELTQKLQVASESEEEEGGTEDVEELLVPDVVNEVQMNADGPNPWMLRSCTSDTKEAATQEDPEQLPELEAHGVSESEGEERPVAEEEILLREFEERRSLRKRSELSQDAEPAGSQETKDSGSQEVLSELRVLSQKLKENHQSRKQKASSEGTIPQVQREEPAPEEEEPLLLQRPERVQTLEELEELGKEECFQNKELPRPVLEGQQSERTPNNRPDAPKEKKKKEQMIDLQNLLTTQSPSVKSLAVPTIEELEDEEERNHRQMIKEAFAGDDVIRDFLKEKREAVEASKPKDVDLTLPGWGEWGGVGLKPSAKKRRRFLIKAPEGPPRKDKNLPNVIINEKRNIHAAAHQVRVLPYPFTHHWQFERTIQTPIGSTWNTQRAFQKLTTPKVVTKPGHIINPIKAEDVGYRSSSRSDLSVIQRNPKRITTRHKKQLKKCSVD
# UniProt Q9BXS6: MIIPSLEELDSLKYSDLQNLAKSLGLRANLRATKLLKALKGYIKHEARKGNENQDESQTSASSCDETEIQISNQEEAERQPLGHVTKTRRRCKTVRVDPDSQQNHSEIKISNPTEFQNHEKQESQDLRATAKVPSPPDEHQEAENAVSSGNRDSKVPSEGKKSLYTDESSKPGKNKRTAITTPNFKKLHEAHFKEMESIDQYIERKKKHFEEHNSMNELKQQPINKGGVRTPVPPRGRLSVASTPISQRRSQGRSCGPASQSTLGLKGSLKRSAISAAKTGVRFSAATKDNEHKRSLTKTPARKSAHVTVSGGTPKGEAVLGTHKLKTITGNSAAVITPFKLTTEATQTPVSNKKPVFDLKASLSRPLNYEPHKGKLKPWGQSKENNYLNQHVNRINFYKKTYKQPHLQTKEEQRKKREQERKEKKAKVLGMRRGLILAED
# UniProt Q9GZM5: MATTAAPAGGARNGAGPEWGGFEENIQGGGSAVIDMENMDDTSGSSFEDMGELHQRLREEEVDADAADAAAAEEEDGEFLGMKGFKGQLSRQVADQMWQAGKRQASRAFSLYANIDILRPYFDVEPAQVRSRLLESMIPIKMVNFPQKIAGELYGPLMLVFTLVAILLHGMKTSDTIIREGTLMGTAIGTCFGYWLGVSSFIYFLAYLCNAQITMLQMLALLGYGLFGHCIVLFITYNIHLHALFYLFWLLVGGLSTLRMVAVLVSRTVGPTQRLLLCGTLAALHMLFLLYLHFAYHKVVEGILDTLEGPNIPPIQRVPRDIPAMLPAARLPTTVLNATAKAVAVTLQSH
# UniProt Q9BVI0: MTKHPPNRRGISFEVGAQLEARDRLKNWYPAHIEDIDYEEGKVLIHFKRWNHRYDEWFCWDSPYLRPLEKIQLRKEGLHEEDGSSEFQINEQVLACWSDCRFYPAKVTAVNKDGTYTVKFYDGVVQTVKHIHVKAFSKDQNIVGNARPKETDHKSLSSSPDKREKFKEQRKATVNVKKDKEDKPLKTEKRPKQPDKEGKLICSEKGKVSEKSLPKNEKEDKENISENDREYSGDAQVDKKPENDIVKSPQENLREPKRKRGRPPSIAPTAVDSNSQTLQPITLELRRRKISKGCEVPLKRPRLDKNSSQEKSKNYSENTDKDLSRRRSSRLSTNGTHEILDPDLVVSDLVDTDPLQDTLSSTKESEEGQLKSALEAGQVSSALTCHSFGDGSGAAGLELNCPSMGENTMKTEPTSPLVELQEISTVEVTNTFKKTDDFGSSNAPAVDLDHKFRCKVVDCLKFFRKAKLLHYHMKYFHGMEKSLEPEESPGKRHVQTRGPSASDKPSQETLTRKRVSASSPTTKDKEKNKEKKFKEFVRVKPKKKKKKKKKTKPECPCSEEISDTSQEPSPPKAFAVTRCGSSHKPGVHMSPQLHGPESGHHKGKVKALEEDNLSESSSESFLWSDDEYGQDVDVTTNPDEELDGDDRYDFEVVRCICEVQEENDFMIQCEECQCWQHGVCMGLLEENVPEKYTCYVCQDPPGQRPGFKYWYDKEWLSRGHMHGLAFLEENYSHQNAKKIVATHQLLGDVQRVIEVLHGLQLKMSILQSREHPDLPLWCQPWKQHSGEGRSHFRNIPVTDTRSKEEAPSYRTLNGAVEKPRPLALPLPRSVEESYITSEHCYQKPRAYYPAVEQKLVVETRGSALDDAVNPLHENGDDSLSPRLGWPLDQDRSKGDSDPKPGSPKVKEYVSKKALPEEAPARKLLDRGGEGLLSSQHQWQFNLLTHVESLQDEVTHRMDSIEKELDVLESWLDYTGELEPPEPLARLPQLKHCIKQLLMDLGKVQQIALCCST
# The other results are listed elsewhere or left out. Most values lie at the level of the controls, where differences are scatter.
# Compound: Cc1nc(Nc2ncc(C(=O)Nc3c(C)cccc3Cl)s2)cc(N2CCN(CCO)CC2)n1 [dasatinib]
# Assay: log2 fold change of tryptic peptide abundance, ligand vs vehicle (limited proteolysis) (log2 ratio); higher = more trypsin-susceptible (destabilized)
# Conditions: ligand concentration: 5 uM; sample: K562 cleared lysate
row,Target,log2 fold change
1,"CINP (peptide sequence: DKIELDSSSPASKENEEK, peptide start residue: 62) (UniProt Q9BW66)",0.634
2,"UniProt Q9H0A9 (peptide sequence: VVGEIAFQLDRR, peptide start residue: 195)",-0.126
3,"CDADC1 (peptide sequence: HGPLGDNEER, peptide start residue: 66) (UniProt Q9BWV3)",0.00932
4,"WDR18 (peptide sequence: HLLGAEHGDEPR, peptide start residue: 342) (UniProt Q9BV38)",-0.251
5,"OSBPL6 (peptide sequence: YGDYYVWNK, peptide start residue: 720) (UniProt Q9BZF3)",-0.696
6,"POLDIP3 (peptide sequence: INVVNNHQAK, peptide start residue: 169) (UniProt Q9BY77)",-0.297
7,"MRPL9 (peptide sequence: YWLAQQAAK, peptide start residue: 250) (UniProt Q9BYD2)",0.307
8,"UniProt Q9H0R1 (peptide sequence: ALLFELR, peptide start residue: 54)",-0.126
9,"FUNDC2 (peptide sequence: SKAEEVVSFVKK, peptide start residue: 160) (UniProt Q9BWH2)",-0.121
10,"SIL1 (peptide sequence: VLQTLGVLLTTCRDR, peptide start residue: 397) (UniProt Q9H173)",0.311
11,"UniProt Q9BXS1 (peptide sequence: NCHLNENIEK, peptide start residue: 38)",-0.0217
12,"UniProt Q9C0B7 (peptide sequence: LCGQLLSER, peptide start residue: 304)",0.321
13,"RBCK1 (peptide sequence: MLEDLGFK, peptide start residue: 151) (UniProt Q9BYM8)",0.0464
14,"PCBD2 (peptide sequence: VQITLTSHDCGELTKK, peptide start residue: 100) (UniProt Q9H0N5)",-0.377
15,"POLR2J3 (peptide sequence: ITINKDTK, peptide start residue: 19) (UniProt Q9H1A7)",0.0985
16,"MRPL32 (peptide sequence: NNIDVCPECGHLK, peptide start residue: 105) (UniProt Q9BYC8)",0.307
17,"RBM38 (peptide sequence: KANVNLAYLGAKPR, peptide start residue: 103) (UniProt Q9H0Z9)",0.198
18,"PCGF6 (peptide sequence: LVINLEER, peptide start residue: 198) (UniProt Q9BYE7)",-0.0319
19,"UTP14A (peptide sequence: KVNPAAALEELEKIEK, peptide start residue: 273) (UniProt Q9BVJ6)",-0.396
20,"NUSAP1 (peptide sequence: LTTEATQTPVSNKKPVFDLK, peptide start residue: 342) (UniProt Q9BXS6)",0.246
21,"CRNKL1 (peptide sequence: LVESDAEAEAVREVYER, peptide start residue: 500) (UniProt Q9BZJ0)",0.342
22,"REXO4 (peptide sequence: KEWESMAR, peptide start residue: 399) (UniProt Q9GZR2)",-0.463
23,"KLF16 (peptide sequence: FSCPLCSK, peptide start residue: 187) (UniProt Q9BXK1)",-0.199
24,"YIPF3 (peptide sequence: QVADQMWQAGK, peptide start residue: 92) (UniProt Q9GZM5)",0.571
25,"GTPBP2 (peptide sequence: VGADITVLR, peptide start residue: 134) (UniProt Q9BX10)",0.197
26,"WNK3 (peptide sequence: FKEEAEMLK, peptide start residue: 265) (UniProt Q9BYP7)",-0.198
27,"INTS2 (peptide sequence: SRSFTKHK, peptide start residue: 563) (UniProt Q9H0H0)",-0.31
28,"MECR (peptide sequence: LALNCVGGK, peptide start residue: 259) (UniProt Q9BV79)",-0.164
29,"PHF20 (peptide sequence: SLEPEESPGKR, peptide start residue: 482) (UniProt Q9BVI0)",-0.508

# 2 entries drawn at random from the list so far:
row,Target,log2 fold change
22,"REXO4 (peptide sequence: KEWESMAR, peptide start residue: 399) (UniProt Q9GZR2)",-0.463
6,"POLDIP3 (peptide sequence: INVVNNHQAK, peptide start residue: 169) (UniProt Q9BY77)",-0.297
